# Laboratory results as given in patent US11065343B2 (IntoCell Inc., priority 2016, dated 2021).
# Assay: general procedure: peptide synthesis; HOBt/pyridine/DIPEA (carbonate coupling to MMAF); CuSO4/sodium ascorbate (click)
# Settings: late stage modification step
substance,measurement,value
BGal-SIG-Toxin compound S-9,step yield,89%
